Test results reported in US20060287372A1, “Pharmaceutical preparations containing thiazolidinediones showing new therapeutic indications” (priority 2003, published 2006).
At least one structure is not confirmed: it was looked up by name or label, or the drawing left a doubt.

Key:
[1] = system: IP-10 production in human stellate cells (Ito cells); test: IP-10 production in primary cultures of human stellate cells (Ito cells); format: cell-based; details: stimulation with INF-γ and TNF-α, FIG. 1
[2] = system: IP-10 levels in epithelial cells (thyrociytes); test: IP-10 levels induced by interferon-γ in epithelial cells (thyrocytes); format: cell-based; details: increasing doses, FIG. 3
[3] = system: IP-10 levels in human mesangial cells; test: IP-10 suppression in human mesangial cells in primary culture treated by interferon γ; format: cell-based; details: increasing doses, stimulation with INF-γ and TNF-α, FIG. 2
[4] = system: endothelial cells; details: rat models, cited from earlier work

CCc1ccc(CCOc2ccc(CC3SC(=O)NC3=O)cc2)nc1 (stereo not shown) [Pioglitazone]
production of IP-10 [1]: decreasing production of IP-10

CN(CCOc1ccc(CC2SC(=O)NC2=O)cc1)c1ccccn1 (stereo not shown) [Rosiglitazone]
IP-10 levels induced by interferon-γ [2]: suppressive effects
IP-10 levels [3]: suppression of the IP-10 levels
production of IP-10 [1]: decreasing production of IP-10

Cc1c(C)c2c(c(C)c1O)CCC(C)(COc1ccc(CC3SC(=O)NC3=O)cc1)O2 (stereo not shown) [troglitazone]
expression of endothelis-1 [4]: decreases
expression of inhibitor 1 of plasminogen activator [4]: decreases
NO levels ([4]; stabilizing mRNA of iNOS): increases
